PubChem BioAssay AID1259254 – NCATS, 2017

Aim: 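Gene knock-downs that lead to re-replication, shown by excess G2 DNA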 (primary screen)
Cell system: human HCT116 colorectal cancer cells
Reagents: single siRNA against human genes
Time to read-out: 3 days
Detection: 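Nuclei stained with Hoechst and imaged; cell-cycle phase assigned by DNA content; G2 share scaled per plate, non-targeting siRNA 0%, GMNN siRNA 100%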
Direction: G2 robust z-score: higher = more G2 cells, more excess DNA replication
Call rule: 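Active siRNAs have a G2 robust z of 5 or more median absolute deviations over the median, which in these data means about 38% or higher of GMNN control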
The deposit covers about 59,000 reagents; shown is a part drawn at random. Of all reagents, about 1,550 (2.6%) got an active call. 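G2 share is only a proxy for re-replication; each gene was hit by three separate siRNAs, and active genes were retested.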 Unmarked entries are inactive. Reagents against one gene are numbered here. Further read-outs or replicates are left out here. Not given: the amount of reagent.

With RSAD2 #1, what does the deposit list?
G2 robust z-score: 2.07

With RSAD2 #2, what does the deposit list?
G2 robust z-score: -0.762

What is on record for RSAD2 #3?
G2 robust z-score: -0.444

What is on record for SFRP5 #1?
G2 robust z-score: 2.72

For SFRP5 #2, what was measured?
G2 robust z-score: 0.0828

For SFRP5 #3, what does the deposit list?
G2 robust z-score: 3.2

With PLVAP #1, how do the results read?
G2 robust z-score: 0.94

With PLVAP #2, what was measured?
G2 robust z-score: -0.397

Which result is listed for PLVAP #3?
G2 robust z-score: -0.152

What did the screen give for EBF2 #1?
G2 robust z-score: 0.248

For EBF2 #2, how do the results read?
G2 robust z-score: 1.5

With EBF2 #3, what was measured?
G2 robust z-score: -1.39

Looked up above.
Value for PLVAP #1 in “G2 robust z-score”: 0.94
Entry for RSAD2 #2 in “G2 robust z-score”: -0.762

The list goes on:
With TINF2 #1, what does the deposit list?
G2 robust z-score: 1.93

With TINF2 #2, how do the results read?
G2 robust z-score: 0.387

With TINF2 #3, what was measured?
G2 robust z-score: 0.394

With PRSS59P #1, what was measured?
G2 robust z-score: -0.169

With PRSS59P #2, how do the results read?
G2 robust z-score: -0.505

What did the screen give for PRSS59P #3?
G2 robust z-score: -0.259

What did the screen give for POLD3 #1?
G2 robust z-score: 0.794

With POLD3 #2, how do the results read?
G2 robust z-score: -1.24

What is on record for POLD3 #3?
G2 robust z-score: 0.477

For SPATA2L #1, what does the deposit list?
G2 robust z-score: -0.942

With SPATA2L #2, how do the results read?
G2 robust z-score: 0.535

For SPATA2L #3, what was measured?
G2 robust z-score: -0.713

For AFDN #1, what was measured?
G2 robust z-score: 3.41

How did the screen score AFDN #2?
G2 robust z-score: 0.59

How did the screen score AFDN #3?
G2 robust z-score: -1.07

What is on record for AFDN #4?
G2 robust z-score: 0.0737

For AFDN #5, how do the results read?
G2 robust z-score: 5.85 (active)

For AFDN #6, what does the deposit list?
G2 robust z-score: 2.47
